The assay deals with human PCSK9 (human) (UniProt Q8NBP7). Briefly: ELISA, purified soluble Fab on coated PCSK9. For orientation: An ELISA detects its analyte on a solid surface through an enzyme-linked reagent.

Amino acid sequences for entries named in this document (tags omitted). Residues count along the entry.
UniProt Q8NBP7, residues 31-692: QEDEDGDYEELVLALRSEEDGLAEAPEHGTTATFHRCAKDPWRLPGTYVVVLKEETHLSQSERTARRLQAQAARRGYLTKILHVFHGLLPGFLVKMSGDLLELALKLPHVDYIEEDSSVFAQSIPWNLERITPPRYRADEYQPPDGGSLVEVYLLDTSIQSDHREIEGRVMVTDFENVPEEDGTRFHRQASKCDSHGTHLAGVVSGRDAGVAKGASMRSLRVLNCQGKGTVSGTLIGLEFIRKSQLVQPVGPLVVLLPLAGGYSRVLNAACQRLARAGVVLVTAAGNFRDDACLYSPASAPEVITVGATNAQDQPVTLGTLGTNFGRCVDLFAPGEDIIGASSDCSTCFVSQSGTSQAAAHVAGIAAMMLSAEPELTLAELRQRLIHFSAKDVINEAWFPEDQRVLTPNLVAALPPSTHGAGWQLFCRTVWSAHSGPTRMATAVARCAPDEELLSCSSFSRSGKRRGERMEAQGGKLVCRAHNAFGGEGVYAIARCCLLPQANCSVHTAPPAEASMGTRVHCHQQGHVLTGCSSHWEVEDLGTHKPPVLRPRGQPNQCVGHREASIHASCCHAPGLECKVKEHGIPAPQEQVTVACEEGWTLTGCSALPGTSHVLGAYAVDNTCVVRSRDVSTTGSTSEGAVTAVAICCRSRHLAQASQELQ

No constants are given. Whether binding was seen depends on the method and setting. Some results given as binding are weak or reduced against the parent protein; the word gives no strength.

B1: AX1 Fab (Fab, V domains shown)
VH: EVQLLESGGGLVQPGGSLRLSCKASGFTFTSYYMHWVRQAPGKGLEWIGRINPDSGSTKYNEKFKGRATISRDNSKNTLYLQMNSLRAEDTAVYYCARGGRLSWDFDVWGQGTLVTVSS
VL: DIQMTQSPSSLSASVGDRVTITCRASQDISRYLAWYQQKPGKAPKLLIYAASSLQSGVPSRFSGSGSGTDFTLTISSLQPEDFATYYCAAYDYSLGGYVFGDGTKVEIKR
As to B1, the binding entry is reported as “binds”.

B2: AX213 Fab (Fab, V domains shown)
VH: QVQLLESGGGLVQPGGSLRLSCKASGYTFSRYGINWVRQAPGKGLEWIGRIDPGNGGTRYNEKFKGKATISRDNSKNTLYLQMNSLRAEDTAVYYCARANDGYSFDYWGQGTLVTVSS
VL: EIVLTQSPATLSLSPGERATITCRASQYVGSYLNWYQQKPGQAPRLLIYDASNRATGIPARFSGSGSGTDFTLTISSLEPEDFAVYYCQVWDSSPPVVFGGGTKVEIKR
As to B2, the binding result was “binds”.

For the origin of these results see patent publication US20120208209A1.
